Test results taken from patent publication US12240912.
No constants are given. Whether binding was seen depends on the method and setting. Some entries that bind do so weakly or less than the wild type.

Amino acid sequences for entries named in this document (tags omitted). Residues count along the entry.
UniProt P01024, residues 23-1663: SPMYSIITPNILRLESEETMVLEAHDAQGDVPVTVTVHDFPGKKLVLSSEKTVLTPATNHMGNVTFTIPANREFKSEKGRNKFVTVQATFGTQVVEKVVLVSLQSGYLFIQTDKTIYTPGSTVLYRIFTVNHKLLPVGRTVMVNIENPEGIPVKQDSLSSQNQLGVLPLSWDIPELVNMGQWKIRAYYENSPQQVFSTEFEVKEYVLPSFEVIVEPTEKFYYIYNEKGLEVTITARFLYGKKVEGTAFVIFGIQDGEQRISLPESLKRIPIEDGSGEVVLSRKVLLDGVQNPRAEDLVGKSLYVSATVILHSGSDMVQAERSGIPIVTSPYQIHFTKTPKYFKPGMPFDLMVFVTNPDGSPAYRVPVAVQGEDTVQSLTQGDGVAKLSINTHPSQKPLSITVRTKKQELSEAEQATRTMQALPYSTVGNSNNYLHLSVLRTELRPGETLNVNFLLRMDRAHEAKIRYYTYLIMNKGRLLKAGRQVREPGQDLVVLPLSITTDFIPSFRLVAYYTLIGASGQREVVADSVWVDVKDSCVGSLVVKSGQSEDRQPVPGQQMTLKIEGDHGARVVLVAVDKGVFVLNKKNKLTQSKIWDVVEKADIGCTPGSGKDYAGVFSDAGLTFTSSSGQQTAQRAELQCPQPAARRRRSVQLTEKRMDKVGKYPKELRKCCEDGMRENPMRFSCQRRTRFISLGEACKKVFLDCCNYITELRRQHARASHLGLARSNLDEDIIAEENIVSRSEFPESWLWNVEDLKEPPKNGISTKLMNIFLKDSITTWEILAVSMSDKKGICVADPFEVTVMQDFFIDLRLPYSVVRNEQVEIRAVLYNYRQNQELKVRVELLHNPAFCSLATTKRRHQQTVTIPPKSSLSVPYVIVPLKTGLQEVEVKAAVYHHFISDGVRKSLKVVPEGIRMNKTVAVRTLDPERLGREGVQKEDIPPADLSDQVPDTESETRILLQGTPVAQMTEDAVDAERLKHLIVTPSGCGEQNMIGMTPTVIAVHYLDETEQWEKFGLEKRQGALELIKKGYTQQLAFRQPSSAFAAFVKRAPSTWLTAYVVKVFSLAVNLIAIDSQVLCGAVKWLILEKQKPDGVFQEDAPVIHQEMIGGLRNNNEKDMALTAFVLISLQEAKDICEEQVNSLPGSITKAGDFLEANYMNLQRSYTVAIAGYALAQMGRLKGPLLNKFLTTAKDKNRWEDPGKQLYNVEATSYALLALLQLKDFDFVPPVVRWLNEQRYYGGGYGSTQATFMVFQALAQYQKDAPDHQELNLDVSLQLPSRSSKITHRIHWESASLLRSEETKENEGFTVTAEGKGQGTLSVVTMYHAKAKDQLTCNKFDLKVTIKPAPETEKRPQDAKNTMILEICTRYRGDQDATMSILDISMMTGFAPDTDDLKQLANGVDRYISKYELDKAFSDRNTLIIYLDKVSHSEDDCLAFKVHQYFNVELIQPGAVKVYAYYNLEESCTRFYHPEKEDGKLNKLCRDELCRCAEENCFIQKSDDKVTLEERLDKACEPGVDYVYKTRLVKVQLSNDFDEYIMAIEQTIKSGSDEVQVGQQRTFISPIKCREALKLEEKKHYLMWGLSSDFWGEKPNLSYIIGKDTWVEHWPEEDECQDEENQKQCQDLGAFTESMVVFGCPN

Key:
[1] = biological target: Human C3 (native C3) (human) (UniProt P01024); assay: SPR; the sheet does not say which partner is on the chip
C3MA [2] = biological target: C3MA (UniProt P01024); assay: as above
[3] = biological target: Human C3 (native C3) (human) (UniProt P01024); assay: surface plasmon resonance
C3MA [4] = biological target: C3MA (UniProt P01024); assay: surface plasmon resonance
[5] = biological target: Human C3 (native C3) (human) (UniProt P01024); assay: overview table, + indicates binding; method not given

Measured: binding

B1: DI62 (VHH)
VHH: QVQLVESGGGLVQAGGSLRLSCAASGRTFSDYTMGWFRQAPGKEREFVAGLSTGGSFTRYAASVEGRFTISRDNAKTTVYLQMNNLQPEDTAVYYCAADFTPYGTNWSRFREARDHYWGQGTQVTVSS
binds: all assays above

B2: D121 (VHH)
VHH: QVQLVESGGGLVQAGGSLRLSCVVSGSTFSDYAMGWYRQAAGEQRELVAAIYSTGRTNYIDSVKGRFTISRDNAKTTVYLQMNSLKPEDTAVYYCNLLGATTMINTKWGQGTQVTVSS
binds: [5]
